{"source": "PubChem BioAssay AID1259254 (NCATS, 2017)", "aim": "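Genome-wide screen for genes that prevent DNA re-replication in cancer cells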 (primary screen)", "cells": "human HCT116 colorectal cancer cells", "reagents": "single siRNA against human genes", "timing": "3 days", "measured": "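Nuclei stained with Hoechst and imaged; cell-cycle phase assigned by DNA content; G2 share scaled per plate, non-targeting siRNA 0%, GMNN siRNA 100%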", "direction": "G2 robust z-score: higher = more G2 cells, more excess DNA replication", "active means": "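An siRNA counts as active if its G2 robust z-score lies at least 5 MADs above the screen median; here such calls match roughly 38% of GMNN control or more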", "note": "This is one part, drawn at random, of about 59,000 reagents tested. Of all reagents, about 1,550 (2.6%) are marked active. 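G2 share is only a proxy for re-replication; each gene was hit by three separate siRNAs, and active genes were retested.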 A number with no mark means an inactive call. Reagents against one gene are numbered here. Further read-outs or replicates are left out here. Not stated in the record: the amount of reagent."}
{"gene knocked down": "SCN2B", "siRNA no.": 1, "G2 robust z-score": 0.00955}
{"gene knocked down": "SCN2B", "siRNA no.": 2, "G2 robust z-score": 3.27}
{"gene knocked down": "SCN2B", "siRNA no.": 3, "G2 robust z-score": -0.995}
{"gene knocked down": "PRR23B", "siRNA no.": 1, "G2 robust z-score": -0.781}
{"gene knocked down": "PRR23B", "siRNA no.": 2, "G2 robust z-score": 1.79}
{"gene knocked down": "PRR23B", "siRNA no.": 3, "G2 robust z-score": 0.885}
{"gene knocked down": "DAB2", "siRNA no.": 1, "G2 robust z-score": -1.5}
{"gene knocked down": "DAB2", "siRNA no.": 2, "G2 robust z-score": 4.03}
{"gene knocked down": "DAB2", "siRNA no.": 3, "G2 robust z-score": -0.349}

2 consecutive entries from above:
{"gene knocked down": "SCN2B", "siRNA no.": 3, "G2 robust z-score": -0.995}
{"gene knocked down": "PRR23B", "siRNA no.": 1, "G2 robust z-score": -0.781}

More results follow:
{"gene knocked down": "RAB3B", "siRNA no.": 1, "G2 robust z-score": 1.87}
{"gene knocked down": "RAB3B", "siRNA no.": 2, "G2 robust z-score": -0.184}
{"gene knocked down": "RAB3B", "siRNA no.": 3, "G2 robust z-score": -0.306}
{"gene knocked down": "KLHDC7B", "siRNA no.": 1, "G2 robust z-score": -0.469}
{"gene knocked down": "KLHDC7B", "siRNA no.": 2, "G2 robust z-score": -0.204}
{"gene knocked down": "KLHDC7B", "siRNA no.": 3, "G2 robust z-score": -0.651}
{"gene knocked down": "WNT7A", "siRNA no.": 1, "G2 robust z-score": -0.522}
{"gene knocked down": "WNT7A", "siRNA no.": 2, "G2 robust z-score": -1.07}
{"gene knocked down": "WNT7A", "siRNA no.": 3, "G2 robust z-score": 0.0723}
{"gene knocked down": "ARB2A", "siRNA no.": 1, "G2 robust z-score": -1.04}
{"gene knocked down": "ARB2A", "siRNA no.": 2, "G2 robust z-score": -0.0724}
{"gene knocked down": "ARB2A", "siRNA no.": 3, "G2 robust z-score": -0.0544}
{"gene knocked down": "TAL1", "siRNA no.": 1, "G2 robust z-score": -0.609}
{"gene knocked down": "TAL1", "siRNA no.": 2, "G2 robust z-score": 4.44}
{"gene knocked down": "TAL1", "siRNA no.": 3, "G2 robust z-score": -0.582}
